No constants are given. Whether binding was seen depends on the method and setting. Binding seen in cells or lysates may run through a third protein. Some results given as binding are weak or reduced against the parent protein; the word gives no strength. Each block holds one substance with its values, some of them ahead of it.
Legend:
Assay in all cases: co-IP
[1] = target: 3×FLAG-tagged NCOA4 (full-length) L63R (human) (UniProt Q13772)
[2] = target: 3×FLAG-tagged NCOA4 (full-length) I56E (human) (UniProt Q13772)
[3] = target: 3×FLAG-tagged NCOA4 (full-length), wild type (human) (UniProt Q13772)

The chains behind the UniProt entries cited, without tags or fusion partners. Where a name states a change or a piece, a line headed by the entry shows the natural chain unless it says otherwise. A line that says so, or that is headed by a name, gives the form on record, which may keep a tag or linker. Residues count along the entry.
UniProt Q13772: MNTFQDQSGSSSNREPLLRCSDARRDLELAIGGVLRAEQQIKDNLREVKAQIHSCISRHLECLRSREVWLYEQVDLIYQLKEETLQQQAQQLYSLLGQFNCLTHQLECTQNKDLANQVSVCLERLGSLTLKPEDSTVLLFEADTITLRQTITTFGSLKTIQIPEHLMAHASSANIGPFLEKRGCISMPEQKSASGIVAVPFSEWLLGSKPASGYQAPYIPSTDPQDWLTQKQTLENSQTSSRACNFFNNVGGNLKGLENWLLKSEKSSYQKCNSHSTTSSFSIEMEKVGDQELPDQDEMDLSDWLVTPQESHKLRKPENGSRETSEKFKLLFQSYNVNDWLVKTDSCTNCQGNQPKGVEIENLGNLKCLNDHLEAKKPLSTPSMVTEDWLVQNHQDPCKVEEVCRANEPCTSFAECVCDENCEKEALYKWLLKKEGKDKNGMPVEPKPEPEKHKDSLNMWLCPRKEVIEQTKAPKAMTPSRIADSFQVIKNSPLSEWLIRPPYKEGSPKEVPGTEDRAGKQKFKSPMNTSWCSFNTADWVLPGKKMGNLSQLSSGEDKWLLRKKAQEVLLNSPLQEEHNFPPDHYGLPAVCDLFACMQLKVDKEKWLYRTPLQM
N-terminal domain of NCOA4 (NCOA4N) fused with mGFP, wild type: residues 1-182 of Q13772
N-terminal domain of NCOA4 (NCOA4N) fused with mGFP, L63R (Q13772-1, form named): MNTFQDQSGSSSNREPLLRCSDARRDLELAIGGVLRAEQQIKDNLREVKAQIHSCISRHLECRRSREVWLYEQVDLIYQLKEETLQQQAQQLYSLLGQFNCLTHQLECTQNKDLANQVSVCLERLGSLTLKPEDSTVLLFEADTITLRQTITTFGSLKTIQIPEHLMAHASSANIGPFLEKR
N-terminal domain of NCOA4 (NCOA4N) fused with mGFP, I56E (Q13772-1, form named): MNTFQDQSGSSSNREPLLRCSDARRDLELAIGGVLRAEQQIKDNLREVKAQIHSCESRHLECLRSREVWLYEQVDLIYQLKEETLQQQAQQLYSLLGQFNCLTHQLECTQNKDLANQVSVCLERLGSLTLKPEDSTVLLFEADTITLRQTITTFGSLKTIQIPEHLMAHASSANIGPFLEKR

binding [1]: no binding
Substance: N-terminal domain of NCOA4 (NCOA4N) fused with mGFP, L63R (from UniProt Q13772-1 1-182) (domain or fragment)

binding [2]: no binding
Substance: N-terminal domain of NCOA4 (NCOA4N) fused with mGFP, I56E (from UniProt Q13772-1 1-182) (domain or fragment)

binding [3]: binds
Substance: N-terminal domain of NCOA4 (NCOA4N) fused with mGFP, wild type (from UniProt Q13772-1 1-182) (domain or fragment)

Source: article doi:10.1101/2022.01.31.478434
